Measurements published in paper PMC7282811.
No constants are given. Whether binding was seen depends on the method and setting. Binding seen in cells or lysates may run through a third protein. Some binding calls cover weakened binding; strength is not graded here.

Amino acid sequences for entries named in this document (tags omitted).
UniProt Q9Y5N1: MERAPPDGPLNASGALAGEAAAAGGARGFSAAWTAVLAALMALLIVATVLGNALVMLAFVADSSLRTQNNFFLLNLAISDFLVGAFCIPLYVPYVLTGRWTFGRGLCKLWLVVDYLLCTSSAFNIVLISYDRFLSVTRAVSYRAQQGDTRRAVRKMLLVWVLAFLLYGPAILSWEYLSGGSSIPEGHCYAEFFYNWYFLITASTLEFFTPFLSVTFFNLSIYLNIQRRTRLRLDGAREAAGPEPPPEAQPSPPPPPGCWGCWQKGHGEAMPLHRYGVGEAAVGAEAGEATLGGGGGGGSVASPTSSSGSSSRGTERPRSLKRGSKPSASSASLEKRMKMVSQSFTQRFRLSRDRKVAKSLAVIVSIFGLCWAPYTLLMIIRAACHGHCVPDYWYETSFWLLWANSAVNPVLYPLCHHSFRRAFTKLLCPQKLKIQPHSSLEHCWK
UniProt P21728: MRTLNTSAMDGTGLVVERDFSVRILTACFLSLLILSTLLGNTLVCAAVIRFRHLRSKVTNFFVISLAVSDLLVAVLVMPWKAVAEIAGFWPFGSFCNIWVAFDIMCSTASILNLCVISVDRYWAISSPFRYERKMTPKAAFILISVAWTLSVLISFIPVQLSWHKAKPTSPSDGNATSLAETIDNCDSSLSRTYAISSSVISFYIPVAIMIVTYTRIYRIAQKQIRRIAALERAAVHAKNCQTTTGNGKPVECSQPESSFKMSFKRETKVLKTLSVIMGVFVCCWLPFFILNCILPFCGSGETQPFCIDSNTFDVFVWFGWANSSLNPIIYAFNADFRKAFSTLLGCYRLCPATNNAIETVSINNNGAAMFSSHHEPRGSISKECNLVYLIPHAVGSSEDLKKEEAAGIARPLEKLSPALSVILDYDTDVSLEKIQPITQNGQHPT

Legend:
[1] = molecular target: histamine H3 receptor (human, endogenous) (human (endogenous in caudate-putamen)) (UniProt Q9Y5N1); assay: proximity ligation; in situ PLA on paraffin-embedded post-mortem human caudate-putamen sections of control subjects and grade 0-2 HD patients
[2] = molecular target: histamine H3 receptor (human, endogenous) (human (endogenous in caudate-putamen)) (UniProt Q9Y5N1); assay: proximity ligation; in situ PLA on paraffin-embedded post-mortem human caudate-putamen sections of grade 3 and grade 4 HD patients
[3] = molecular target: histamine H3 receptor (human, endogenous) (human (endogenous in caudate-putamen)) (UniProt Q9Y5N1); assay: condition: only in sections of grade 3-4 HD patients; proximity ligation; in situ PLA on paraffin-embedded post-mortem human caudate-putamen sections of grade 3 and grade 4 HD patients

binding [1]: binds
binding [2]: binds weakly
binding [3]: no binding
Substance: dopamine D1 receptor (human, endogenous) (from UniProt P21728 1-446)
